# In PubChem BioAssay AID602313 (National Center for Advancing Translational Sciences (NCATS), 2012):
# Screen size: about 390,000 compounds; about 760 (0.19%) were called active. The shares of active, inactive and inconclusive entries below differ from those in the screen. The call rests on the fitted dose curve; in most records, active means well fitted inhibition curve with a large enough effect; inconclusive means small, poorly fitted or top-dose-only effect; inactive means flat fitted curve, though single readings scatter. Where the call is inconclusive, the potency comes from a doubtful curve fit.
# Test: qHTS for Inhibitors of Vif-A3F Interactions: qHTS; further: nearly all actives have a fitted effect of over 65% in size; on activity, negative = active: % of control where 0% means no effect
# Conditions: HeLa A3F-eYFP + Vif (tagged APOBEC3F with the HIV-1 protein that degrades it), YFP fluorescence increase; series mostly up to 46.1 µM; activity, negative = active: at the top concentration
# In short: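 Fluorescence increase (Ex 488/Em 500-530) after overnight compound treatment at 37 deg C flags inhibition of Vif-driven A3F-eYFP loss in stable HeLa A3F-eYFP/Vif cells seeded overnight beforehand.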
# Potency means the concentration at half of the fitted maximal effect.
SMILES,Potency,"activity, negative = active"
OCCN1CCN(CC(O)COc2ccc3ccccc3c2)CC1 (stereo not drawn),"inconclusive: 1.41 µM [inhibitor, partial curve, poor fit]",
CCc1c(C)nn(C(=O)/C(C#N)=C\N(C)C)c1C,"inconclusive: 35.5 µM [inhibitor, single point]",
Cc1cc(=O)oc2cc(OC(=O)c3nn(C(C)C)c(=O)c4ccccc34)ccc12,,inactive: -2.71%
COc1ccc(Br)cc1[C@H]1[C@H]2C=CC[C@@H](C)[C@@H]2C(=O)N1Cc1ccccc1,"inconclusive: 35.5 µM [inhibitor, single point]",
COc1ccc(NC(=O)c2ccc3[nH]c(C)c(C)c3c2)cc1,"inconclusive: 6.31 µM [inhibitor, single point]",
COc1ccc(C2c3[nH]c4ccccc4c3CCN2C(=O)c2cc3ncccn3n2)c(F)c1 (stereo not drawn),"inconclusive: 6.31 µM [inhibitor, single point]",
O=c1c(Cl)c2oc3ccccc3nc-2c2ccccc12,"inconclusive: 2.82 µM [inhibitor, full curve, poor fit]",
CN1CCN(C2=C(Cl)C(=O)c3ccccc3C2=O)CC1,"inconclusive: 25.1 µM [inhibitor, single point]",
COc1cc([N+](=O)[O-])ccc1NC(=O)Cc1ccc(F)cc1,"inconclusive: 1 µM [inhibitor, full curve, poor fit]",
O=C(CSc1nnc(-c2ccco2)o1)NCCc1ccccc1,"inconclusive: 6.31 µM [inhibitor, single point]",
CC(=O)c1ccc(NC(=O)c2cc3c([nH]c2=O)CC(c2ccccc2)CC3=O)cc1 (stereo not drawn),"inconclusive: 22.4 µM [inhibitor, single point]",
O=C(N/N=C/C(Cl)=C/c1ccc([N+](=O)[O-])cc1)C(=O)Nc1cccc(C(=O)O)c1,"inconclusive: 28.2 µM [inhibitor, single point]",
CN1C(=O)/C(=C/c2cn(CC(=O)N3CCCCC3)c3ccccc23)NC1=S,"inconclusive: 35.5 µM [inhibitor, single point]",
CCOC(=O)c1[nH]c(=S)n(-c2ccccc2)c1C(=O)OCC,,inactive: -0.317%
CC(C)CCSc1nc(N2CCOCC2)c2c(c1C#N)CC(C)(C)OC2,,inactive: -4.8%
Cc1ccsc1C(=O)Nc1ccc(O)c(-c2nc3ccccc3s2)c1,"inconclusive: 35.5 µM [inhibitor, single point]",
CC(NC(=O)/C(C#N)=C/c1ccc(Cl)c([N+](=O)[O-])c1)c1ccccc1 (stereo not drawn),,inactive: -4.35%
N=C1SCC(=O)N1c1ncc(Cc2cccc(Cl)c2)s1,"inconclusive: 2.82 µM [inhibitor, partial curve, poor fit]",
CCNC(=S)N/N=C(\C)c1ccc2ccccc2c1OC(F)F,"inconclusive: 3.16 µM [inhibitor, single point]",
CC(=O)c1sc(Nc2nc3ccc(F)cc3s2)nc1C,,inactive: 7.5%
Cn1c(COc2ccccc2C(C)(C)C)nc2ccccc21,,inactive: -7.42%
Cc1ccc(C(=O)CSc2ncnc3sc4c(c23)CCC(C)C4)cc1 (stereo not drawn),"inconclusive: 35.5 µM [inhibitor, partial curve, poor fit]",

SMILES,Potency,"activity, negative = active"
CN(C)c1ccc(/C=C/c2nc3ccccc3c(=O)n2-c2ccc(C(=O)O)cc2)cc1,"inconclusive: 3.16 µM [inhibitor, partial curve, poor fit]",
O=C1c2ccccc2-c2onc3ccc(Oc4ccccc4)c1c23,"inconclusive: 2.51 µM [inhibitor, full curve, poor fit]",
CCOC(=S)SCC(=O)Nc1nc(C)c(C)s1,,inactive: -13.3%
CCC(Sc1nnc(C)c(=O)[nH]1)C(=O)Nc1cccc2ccccc12 (stereo not drawn),"inconclusive: 25.1 µM [inhibitor, single point]",
CS(=O)(=O)N1CCN(c2ccc([N+](=O)[O-])cc2C(F)(F)F)CC1,,inactive: 2.49%
CCN1/C(=C2\SC(=S)N(Cc3ccccc3)C2=O)Sc2ccccc21,"inconclusive: 35.5 µM [inhibitor, single point]",
O=C(NC(=S)Nc1ccc(Cc2ccncc2)cc1)c1ccccc1,,inactive: 3%
COc1ccc2c(c1)c1c(c(=O)n(Cc3ccccc3)c(=O)n1CC(=O)Nc1ccccc1F)n2C,,inactive: -21.7%
CCOc1ccccc1NC(=O)N1CC(C)Oc2ccc(Cl)cc21 (stereo not drawn),"inconclusive: 15.8 µM [inhibitor, partial curve, poor fit]",
Cc1ccc(-c2nc3ccccc3s2)cc1NC(=S)NC(=O)/C=C/c1ccco1,"inconclusive: 35.5 µM [inhibitor, single point]",
O=C1CC(c2ccccc2)Cc2[nH]c(=O)c(-c3nc(-c4ccc(Cl)c(Cl)c4)cs3)cc21 (stereo not drawn),"inconclusive: 8.91 µM [inhibitor, partial curve, poor fit]",
Cc1ccccc1NC(=S)N/N=C/C(C)c1ccccc1 (stereo not drawn),"inconclusive: 35.5 µM [inhibitor, partial curve, poor fit]",
CC(C)Cc1nn2cc(-c3cccc(Br)c3)nc2s1,,inactive: -4.6%
CC(=O)Nc1cc2oc3ccccc3c2cc1[N+](=O)[O-],"inconclusive: 35.5 µM [inhibitor, single point]",
COc1ccc(N2COC3c4cccc5cccc(c45)C32)cc1 (stereo not drawn),"inconclusive: 35.5 µM [inhibitor, single point]",
CCOc1ccc(-c2nnc(SCC(=O)Nc3ccc4c(c3)c3ccccc3n4CC)n2N)cc1,"inconclusive: 35.5 µM [inhibitor, single point]",
O=C(CCCCCN1C(=O)c2cccc3cccc(c23)C1=O)NC1CCS(=O)(=O)C1 (stereo not drawn),,inactive: -6.93%
CC(=O)NC(c1ccco1)c1cc(F)c2cccnc2c1O (stereo not drawn),"inconclusive: 4.47 µM [inhibitor, single point]",
Cc1sc2nc(COC(=O)c3cccc(S(=O)(=O)N(C)c4ccccc4)c3)[nH]c(=O)c2c1C,"inconclusive: 15.8 µM [inhibitor, single point]",
CCc1ccccc1NC(=O)Cn1nnc(C(=O)NCc2ccco2)c1N,,inactive: -8.9%
O=C1OC(c2ccc3ccccc3c2O)(c2ccc3ccccc3c2O)c2ccccc21,"inconclusive: 35.5 µM [inhibitor, partial curve, poor fit]",

# Another view of some results above:
SMILES | Potency | activity, negative = active
CS(=O)(=O)N1CCN(c2ccc([N+](=O)[O-])cc2C(F)(F)F)CC1 |  | inactive: 2.49%
CC(C)Cc1nn2cc(-c3cccc(Br)c3)nc2s1 |  | inactive: -4.6%
